The results in this text go back to PMC6733923.

Amino acid sequences for entries named in this document (tags omitted).
UniProt Q05397: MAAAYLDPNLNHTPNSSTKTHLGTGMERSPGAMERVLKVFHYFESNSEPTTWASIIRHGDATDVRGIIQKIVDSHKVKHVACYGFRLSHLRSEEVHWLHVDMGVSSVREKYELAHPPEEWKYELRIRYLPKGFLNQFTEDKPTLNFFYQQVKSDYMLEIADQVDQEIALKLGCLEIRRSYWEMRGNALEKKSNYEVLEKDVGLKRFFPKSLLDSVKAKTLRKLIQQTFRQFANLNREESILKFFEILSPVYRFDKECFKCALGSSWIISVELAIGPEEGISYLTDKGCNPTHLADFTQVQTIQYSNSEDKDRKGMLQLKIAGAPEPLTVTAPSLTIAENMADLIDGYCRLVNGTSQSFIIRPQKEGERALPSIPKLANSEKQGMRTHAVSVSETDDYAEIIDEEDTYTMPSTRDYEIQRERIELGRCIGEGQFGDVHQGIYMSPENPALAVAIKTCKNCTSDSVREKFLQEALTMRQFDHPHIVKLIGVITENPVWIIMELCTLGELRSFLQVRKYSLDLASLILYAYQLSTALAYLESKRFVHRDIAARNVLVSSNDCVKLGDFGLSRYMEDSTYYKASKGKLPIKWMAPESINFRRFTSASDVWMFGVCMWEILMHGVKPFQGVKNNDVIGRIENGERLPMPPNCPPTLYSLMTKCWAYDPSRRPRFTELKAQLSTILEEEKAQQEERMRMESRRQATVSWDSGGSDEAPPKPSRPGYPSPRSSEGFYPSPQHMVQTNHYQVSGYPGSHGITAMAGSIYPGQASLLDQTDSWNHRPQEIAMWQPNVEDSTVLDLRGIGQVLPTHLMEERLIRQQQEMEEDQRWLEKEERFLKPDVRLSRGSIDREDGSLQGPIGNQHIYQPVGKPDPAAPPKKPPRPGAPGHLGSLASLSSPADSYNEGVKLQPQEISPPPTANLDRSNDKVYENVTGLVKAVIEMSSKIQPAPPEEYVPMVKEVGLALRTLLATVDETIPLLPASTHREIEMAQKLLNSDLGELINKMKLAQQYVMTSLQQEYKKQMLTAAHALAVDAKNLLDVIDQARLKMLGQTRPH

These are yes or no findings as the source states them, for the method shown. In cells and extracts the contact can be indirect. Here binding means that the protein was enriched with, or labelled near, the bait; the list need not be complete.

This assay addresses Focal adhesion kinase 1 (human (endogenous in HCT-116)) (UniProt Q05397). Put plainly: affinity purification with mass spectrometry; anti-FAK polyclonal antibody and Protein A/G agarose on 1.5 mg HCT-116 total cell lysate, cells untreated (regular IP) or stimulated with 10 ng/ml EGF for 30 min; rabbit IgG as control; 1D SDS-PAGE, in-gel trypsin digestion, nano-LC-MS/MS; the proteins of Table 2 were found only with EGF ….

B1: Isoform 4 of Probable 28 S rRNA (cytosine(4447)-C(5))-methyltransferase (protein, UniProt P46087-4 1-845)
chain: MGRKLDPTKEKRGPGRKARKQKGAETELVRFLPAVSDENSKRLSSRARKRAAKRRLGSVEAPKTNKSPEAKPLPGKLPKGISAGAVQTAGKKGPQSLFNAPRGKKRPAPGSDEEEEEEDSEEDGMVNHGDLWGSEDDADTVDDYGADSNSEDEEEGEAAGVQWLGLGSLQPPPPGFKQFSCLSFPSSWDLQLLPIERAARKQKAREAAAGIQWSEEETEDEEEEKEVTPESGPPKVEEADGGLQINVDEEPFVLPPAGEMEQDAQAPDLQRVHKRIQDIVGILRDFGAQREEGRSRSEYLNRLKKDLAIYYSYGDFLLGKLMDLFPLSELVEFLEANEVPRPVTLRTNTLKTRRRDLAQALINRGVNLDPLGKWSKTGLVVYDSSVPIGATPEYLAGHYMLQGASSMLPVMALAPQEHERILDMCCAPGGKTSYMAQLMKNTGVILANDANAERLKSVVGNLHRLGVTNTIISHYDGRQFPKVVGGFDRVLLDAPCSGTGVISKDPAVKTNKDEKDILRCAHLQKELLLSAIDSVNATSKTGGYLVYCTCSITVEENEWVVDYALKKRNVRLVPTGLDFGQEGFTRFRERRFHPSLRSTRRFYPHTHNMDGFFIAKFKKFSNSIPQSQTGNSETATPTNVDLPQVIPKSENSSQPAKKAKGAAKTKQQLQKQQHPKKASFQKLNGISKGADSELSTVPSVTKTQASSSFQDSSQPAGKAEGIREPKVTGKLKQRSPKLQSSKKVAFLRQNAPPKGTDTQTPAVLSPSKTQATLKPKDHHQPLGRAKGVEKQQLPEQPFEKAAFQKQNDTPKGPQPPTVSPIRSSRPPPAKRKKSQSRGNSQLLLS
For the molecule B1, the binding entry is listed as “binds”.

B2: Dolichyl-diphosphooligosaccharide–protein glycosyltransferase subunit 1 (protein, UniProt P04843 24-607)
chain: ASSEAPPLINEDVKRTVDLSSHLAKVTAEVVLAHLGGGSTSRATSFLLALEPELEARLAHLGVQVKGEDEEENNLEVRETKIKGKSGRFFTVKLPVALDPGAKISVIVETVYTHVLHPYPTQITQSEKQFVVFEGNHYFYSPYPTKTQTMRVKLASRNVESYTKLGNPTRSEDLLDYGPFRDVPAYSQDTFKVHYENNSPFLTITSMTRVIEVSHWGNIAVEENVDLKHTGAVLKGPFSRYDYQRQPDSGISSIRSFKTILPAAAQDVYYRDEIGNVSTSHLLILDDSVEMEIRPRFPLFGGWKTHYIVGYNLPSYEYLYNLGDQYALKMRFVDHVFDEQVIDSLTVKIILPEGAKNIEIDSPYEISRAPDELHYTYLDTFGRPVIVAYKKNLVEQHIQDIVVHYTFNKVLMLQEPLLVVAAFYILFFTVIIYVRLDFSITKDPAAEARMKVACITEQVLTLVNKRIGLYRHFDETVNRYKQSRDISTLNSGKKSLETEHKALTSEIALLQSRLKTEGSDLCDRVSEMQKLDAQVKELVLKSAVEAERLVAGKLKKDTYIENEKLISGKRQELVTKIDHILDAL
Turning to B2, the binding entry is given as “binds”.

B3: ADP/ATP translocase 3 (protein, UniProt P12236 1-298)
chain: MTEQAISFAKDFLAGGIAAAISKTAVAPIERVKLLLQVQHASKQIAADKQYKGIVDCIVRIPKEQGVLSFWRGNLANVIRYFPTQALNFAFKDKYKQIFLGGVDKHTQFWRYFAGNLASGGAAGATSLCFVYPLDFARTRLAADVGKSGTEREFRGLGDCLVKITKSDGIRGLYQGFSVSVQGIIIYRAAYFGVYDTAKGMLPDPKNTHIVVSWMIAQTVTAVAGVVSYPFDTVRRRMMMQSGRKGADIMYTGTVDCWRKIFRDEGGKAFFKGAWSNVLRGMGGAFVLVLYDELKKVI
B3: the binding entry is reported as “binds”.

B4: nucleolar MIF4G domain-containing protein 1 (protein, UniProt Q5C9Z4 1-860)
chain: MAASRSAGEAGPGGSQGRVVRMKRRGGRGPRRGPAGGGEKALKRLKLAVEEFVHATSEGEAPGGCEGRGAPVSFRPGGRKSRKELRKEKRHLRKARRLQRTAGPEQGPGLGGRSGAEEASGHRQDTEERARPAPSRDPSPPRKPRPSRVKAKATAATAKTRPSAAATAAARKRALLAANEEEDREIRKLERCLGLNKRKKKDGSSSVPLSFARDGLDYILGALESGKNSGLYDSSGEEEEDAGQTLPESDLESDSQDESEEEEEGDVEKEKKAQEAEAQSEDDDEDTEEEQGEEKEKGAQEKRRGKRVRFAEDEEKSENSSEDGDITDKSLCGSGEKYIPPHVRQAEETVDFKKKEELERLKKHVKGLLNRLSEPNMASISGQLEELYMAHSRKDMNDTLTSALMGACVTASAMPSRLMMEHVLLVSILHHTVGIEVGAHFLEAVVRKFDAIYKYGSEGKECDNLFTVIAHLYNFHVVQSLLIFDILKKLIGTFTEKDIELILLMLKNVGFSLRKDDALSLKELITEAQTKASGAGSEFQDQTRIRFMLETMLALKNNDMRKIPGYDPEPVEKLRKLQRALVRNAGSGSETQLRVSWDSVLSAEQTGRWWIVGSAWSGAPMIDNSHHTHLQKQLVGTVSSKILELARKQRMNTDIRRNIFCTIMTSEDFLDAFEKLLKLGLKDQQEREIIHVLMDCCLQEKTYNPFYAFLASKFCEYERRFQMTFQFSIWDKFRDLENLPATNFSNLVHLVAHLLKTKSLSLSILKVVEFSELDKPRVRFLRKVLSILLMETEVEDLSLIFTRVSDNPKLGVLREGLKLFISHFLLKNAQAHRSADEANVLREKADLATKCLQGKASLRM
As for B4, the binding entry is given as “binds”.

B5: Mitochondrial ribonuclease P protein 1 (protein, UniProt Q7L0Y3 40-403)
chain: MSSKIPAVTYPKNESTPPSEELELDKWKTTMKSSVQEECVSTISSSKDEDPLAATREFIEMWRLLGREVPEHITEEELKTLMECVSNTAKKKYLKYLYTKEKVKKARQIKKEMKAAAREEAKNIKLLETTEEDKQKNFLFLRLWDRNMDIAMGWKGAQAMQFGQPLVFDMAYENYMKRKELQNTVSQLLESEGWNRRNVDPFHIYFCNLKIDGALHRELVKRYQEKWDKLLLTSTEKSHVDLFPKDSIIYLTADSPNVMTTFRHDKVYVIGSFVDKSMQPGTSLAKAKRLNLATECLPLDKYLQWEIGNKNLTLDQMIRILLCLKNNGNWQEALQFVPKRKHTGFLEISQHSQEFINRLKKAKT
As to B5, the binding entry is on record as “binds”.

B6: RRP12-like protein (protein, UniProt Q5JTH9-1 1-1297)
chain: MGRSGKLPSGVSAKLKRWKKGHSSDSNPAICRHRQAARSRFFSRPSGRSDLTVDAVKLHNELQSGSLRLGKSEAPETPMEEEAELVLTEKSSGTFLSGLSDCTNVTFSKVQRFWESNSAAHKEICAVLAAVTEVIRSQGGKETETEYFAALMTTMEAVESPESLAAVAYLLNLVLKRVPSPVLIKKFSDTSKAFMDIMSAQASSGSTSVLRWVLSCLATLLRKQDLEAWGYPVTLQVYHGLLSFTVHPKPKIRKAAQHGVCSVLKGSEFMFEKAPAHHPAAISTAKFCIQEIEKSGGSKEATTTLHMLTLLKDLLPCFPEGLVKSCSETLLRVMTLSHVLVTACAMQAFHSLFHARPGLSTLSAELNAQIITALYDYVPSENDLQPLLAWLKVMEKAHINLVRLQWDLGLGHLPRFFGTAVTCLLSPHSQVLTAATQSLKEILKECVAPHMADIGSVTSSASGPAQSVAKMFRAVEEGLTYKFHAAWSSVLQLLCVFFEACGRQAHPVMRKCLQSLCDLRLSPHFPHTAALDQAVGAAVTSMGPEVVLQAVPLEIDGSEETLDFPRSWLLPVIRDHVQETRLGFFTTYFLPLANTLKSKAMDLAQAGSTVESKIYDTLQWQMWTLLPGFCTRPTDVAISFKGLARTLGMAISERPDLRVTVCQALRTLITKGCQAEADRAEVSRFAKNFLPILFNLYGQPVAAGDTPAPRRAVLETIRTYLTITDTQLVNSLLEKASEKVLDPASSDFTRLSVLDLVVALAPCADEAAISKLYSTIRPYLESKAHGVQKKAYRVLEEVCASPQGPGALFVQSHLEDLKKTLLDSLRSTSSPAKRPRLKCLLHIVRKLSAEHKEFITALIPEVILCTKEVSVGARKNAFALLVEMGHAFLRFGSNQEEALQCYLVLIYPGLVGAVTMVSCSILALTHLLFEFKGLMGTSTVEQLLENVCLLLASRTRDVVKSALGFIKVAVTVMDVAHLAKHVQLVMEAIGKLSDDMRRHFRMKLRNLFTKFIRKFGFELVKRLLPEEYHRVLVNIRKAEARAKRHRALSQAAVEEEEEEEEEEEPAQGKGDSIEEILADSEDEEDNEEEERSRGKEQRKLARQRSRAWLKEGGGDEPLNFLDPKVAQRVLATQPGPGRGRKKDHGFKVSADGRLIIREEADGNKMEEEEGAKGEDEEMADPMEDVIIRNKKHQKLKHQKEAEEEELEIPPQYQAGGSGIHRPVAKKAMPGAEYKAKKAKGDVKKKGRPDPYAYIPLNRSKLNRRKKMKLQGQFKGLVKAARRGSQVGHKNRRKDRRP
On to B6, for which the binding entry is listed as “binds”.

B7: Something about silencing protein 10 (protein, UniProt Q9NQZ2 1-479)
chain: MVGRSRRRGAAKWAAVRAKAGPTLTDENGDDLGLPPSPGDTSYYQDQVDDFHEARSRAALAKGWNEVQSGDEEDGEEEEEEVLALDMDDEDDEDGGNAGEEEEEENADDDGGSSVQSEAEASVDPSLSWGQRKKLYYDTDYGSKSRGRQSQQEAEEEEREEEEEAQIIQRRLAQALQEDDFGVAWVEAFAKPVPQVDEAETRVVKDLAKVSVKEKLKMLRKESPELLELIEDLKVKLTEVKDELEPLLELVEQGIIPPGKGSQYLRTKYNLYLNYCSNISFYLILKARRVPAHGHPVIERLVTYRNLINKLSVVDQKLSSEIRHLLTLKDDAVKKELIPKAKSTKPKPKSVSKTSAAACAVTDLSDDSDFDEKAKLKYYKEIEDRQKLKRKKEENSTEEQALEDQNAKRAITYQIAKNRGLTPRRKKIDRNPRVKHREKFRRAKIRRRGQVREVRKEEQRYSGELSGIRAGVKKSIKLK
As to B7, the binding entry was “binds”.

B8: Plakophilin-3 (protein, UniProt Q9Y446 1-797)
chain: MQDGNFLLSALQPEAGVCSLALPSDLQLDRRGAEGPEAERLRAARVQEQVRARLLQLGQQPRHNGAAEPEPEAETARGTSRGQYHTLQAGFSSRSQGLSGDKTSGFRPIAKPAYSPASWSSRSAVDLSCSRRLSSAHNGGSAFGAAGYGGAQPTPPMPTRPVSFHERGGVGSRADYDTLSLRSLRLGPGGLDDRYSLVSEQLEPAATSTYRAFAYERQASSSSSRAGGLDWPEATEVSPSRTIRAPAVRTLQRFQSSHRSRGVGGAVPGAVLEPVARAPSVRSLSLSLADSGHLPDVHGFNSYGSHRTLQRLSSGFDDIDLPSAVKYLMASDPNLQVLGAAYIQHKCYSDAAAKKQARSLQAVPRLVKLFNHANQEVQRHATGAMRNLIYDNADNKLALVEENGIFELLRTLREQDDELRKNVTGILWNLSSSDHLKDRLARDTLEQLTDLVLSPLSGAGGPPLIQQNASEAEIFYNATGFLRNLSSASQATRQKMRECHGLVDALVTSINHALDAGKCEDKSVENAVCVLRNLSYRLYDEMPPSALQRLEGRGRRDLAGAPPGEVVGCFTPQSRRLRELPLAADALTFAEVSKDPKGLEWLWSPQIVGLYNRLLQRCELNRHTTEAAAGALQNITAGDRRWAGVLSRLALEQERILNPLLDRVRTADHHQLRSLTGLIRNLSRNARNKDEMSTKVVSHLIEKLPGSVGEKSPPAEVLVNIIAVLNNLVVASPIAARDLLYFDGLRKLIFIKKKRDSPDSEKSSRAASSLLANLWQYNKLHRDFRAKGYRKEDFLGP
With B8, the binding entry was “binds”.

B9: ATP synthase subunit gamma, mitochondrial (protein, UniProt P36542-1 26-298)
chain: ATLKDITRRLKSIKNIQKITKSMKMVAAAKYARAERELKPARIYGLGSLALYEKADIKGPEDKKKHLLIGVSSDRGLCGAIHSSIAKQMKSEVATLTAAGKEVMLVGIGDKIRGILYRTHSDQFLVAFKEVGRKPPTFGDASVIALELLNSGYEFDEGSIIFNKFRSVISYKTEEKPIFSLNTVASADSMSIYDDIDADVLQNYQEYNLANIIYYSLKESTTSEQSARMTAMDNASKNASEMIDKLTLTFNRTRQAVITKELIEIISGAAALD
As for B9, the binding entry is listed as “binds”.
